{"sequences": {"note": "Amino acid sequences for entries named in this document (tags omitted).", "UniProt Q12306": "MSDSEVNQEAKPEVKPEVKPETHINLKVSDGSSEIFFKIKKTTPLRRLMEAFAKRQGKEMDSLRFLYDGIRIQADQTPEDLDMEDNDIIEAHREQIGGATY"}, "source": "paper PMC6428284", "test_in_all_cases": "two-hybrid; strain PJ69-4A (wild-type SMT3); GAL4BD-Yen1 or truncated/mutant derivatives as bait, GAL4AD fusions (pACTII) as prey; ten-fold serial dilutions spotted on SC-His and SC-Ade plates, 3 days at 30°C; library screen and directed tests", "key": {"[1]": {"target": "T1, GBD-Yen1 (1–638) (S. cerevisiae) (UniProt P40028)", "T1 sequence": "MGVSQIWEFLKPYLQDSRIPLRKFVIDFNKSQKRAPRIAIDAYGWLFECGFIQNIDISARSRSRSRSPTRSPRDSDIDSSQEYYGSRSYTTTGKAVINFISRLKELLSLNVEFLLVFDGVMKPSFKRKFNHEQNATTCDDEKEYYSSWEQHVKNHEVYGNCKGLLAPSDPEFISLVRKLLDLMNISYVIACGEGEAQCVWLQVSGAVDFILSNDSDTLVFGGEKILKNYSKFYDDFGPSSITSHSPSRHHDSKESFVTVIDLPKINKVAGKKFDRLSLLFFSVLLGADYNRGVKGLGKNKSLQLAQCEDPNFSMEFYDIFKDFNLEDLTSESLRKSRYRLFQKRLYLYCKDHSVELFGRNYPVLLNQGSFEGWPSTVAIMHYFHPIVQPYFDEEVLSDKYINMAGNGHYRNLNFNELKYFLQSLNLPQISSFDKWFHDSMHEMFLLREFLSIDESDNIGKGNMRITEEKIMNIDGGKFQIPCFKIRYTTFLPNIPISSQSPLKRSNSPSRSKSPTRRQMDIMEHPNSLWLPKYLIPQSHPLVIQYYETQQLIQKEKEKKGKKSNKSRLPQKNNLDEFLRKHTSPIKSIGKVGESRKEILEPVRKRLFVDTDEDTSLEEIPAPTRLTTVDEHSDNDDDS"}, "[2]": {"target": "T2, GBD-Yen1 (1–690) (S. cerevisiae) (UniProt P40028)", "T2 sequence": "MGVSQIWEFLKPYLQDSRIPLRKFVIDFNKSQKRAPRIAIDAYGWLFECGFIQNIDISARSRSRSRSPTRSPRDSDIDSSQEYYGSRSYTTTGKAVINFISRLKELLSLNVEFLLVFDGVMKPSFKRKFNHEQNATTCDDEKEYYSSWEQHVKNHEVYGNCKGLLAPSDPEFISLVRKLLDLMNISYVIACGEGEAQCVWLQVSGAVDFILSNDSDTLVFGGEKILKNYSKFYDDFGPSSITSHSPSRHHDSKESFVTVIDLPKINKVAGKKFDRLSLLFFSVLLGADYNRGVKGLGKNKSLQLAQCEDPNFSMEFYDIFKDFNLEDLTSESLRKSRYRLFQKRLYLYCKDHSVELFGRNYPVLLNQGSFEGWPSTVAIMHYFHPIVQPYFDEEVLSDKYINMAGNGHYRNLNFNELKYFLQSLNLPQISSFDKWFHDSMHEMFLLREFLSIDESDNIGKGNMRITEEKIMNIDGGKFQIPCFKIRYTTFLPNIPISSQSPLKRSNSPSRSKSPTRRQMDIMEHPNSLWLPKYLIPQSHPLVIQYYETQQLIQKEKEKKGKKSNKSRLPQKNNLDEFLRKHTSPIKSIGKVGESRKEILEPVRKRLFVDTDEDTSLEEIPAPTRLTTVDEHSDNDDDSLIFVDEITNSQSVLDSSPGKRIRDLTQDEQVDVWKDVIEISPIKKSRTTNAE"}, "[3]": {"target": "T3, GBD-Yen1 (1–540) (S. cerevisiae) (UniProt P40028)", "T3 sequence": "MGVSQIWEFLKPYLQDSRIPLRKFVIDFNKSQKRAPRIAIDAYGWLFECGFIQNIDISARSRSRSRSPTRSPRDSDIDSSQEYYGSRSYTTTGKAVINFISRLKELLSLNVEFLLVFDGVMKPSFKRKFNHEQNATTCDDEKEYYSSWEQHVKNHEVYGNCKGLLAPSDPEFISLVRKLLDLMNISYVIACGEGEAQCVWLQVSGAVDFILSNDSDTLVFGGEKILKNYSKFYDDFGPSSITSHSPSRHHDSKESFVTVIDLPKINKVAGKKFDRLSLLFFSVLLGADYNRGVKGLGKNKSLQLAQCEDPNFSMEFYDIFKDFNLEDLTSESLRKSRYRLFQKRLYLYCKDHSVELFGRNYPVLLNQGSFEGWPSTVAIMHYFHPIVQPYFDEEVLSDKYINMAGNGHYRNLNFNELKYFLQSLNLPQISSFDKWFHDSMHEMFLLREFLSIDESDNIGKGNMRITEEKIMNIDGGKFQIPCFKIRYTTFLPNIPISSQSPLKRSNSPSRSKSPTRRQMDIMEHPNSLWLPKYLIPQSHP"}, "[4]": {"target": "T4, GBD-Yen1 (1–570) (S. cerevisiae) (UniProt P40028)", "T4 sequence": "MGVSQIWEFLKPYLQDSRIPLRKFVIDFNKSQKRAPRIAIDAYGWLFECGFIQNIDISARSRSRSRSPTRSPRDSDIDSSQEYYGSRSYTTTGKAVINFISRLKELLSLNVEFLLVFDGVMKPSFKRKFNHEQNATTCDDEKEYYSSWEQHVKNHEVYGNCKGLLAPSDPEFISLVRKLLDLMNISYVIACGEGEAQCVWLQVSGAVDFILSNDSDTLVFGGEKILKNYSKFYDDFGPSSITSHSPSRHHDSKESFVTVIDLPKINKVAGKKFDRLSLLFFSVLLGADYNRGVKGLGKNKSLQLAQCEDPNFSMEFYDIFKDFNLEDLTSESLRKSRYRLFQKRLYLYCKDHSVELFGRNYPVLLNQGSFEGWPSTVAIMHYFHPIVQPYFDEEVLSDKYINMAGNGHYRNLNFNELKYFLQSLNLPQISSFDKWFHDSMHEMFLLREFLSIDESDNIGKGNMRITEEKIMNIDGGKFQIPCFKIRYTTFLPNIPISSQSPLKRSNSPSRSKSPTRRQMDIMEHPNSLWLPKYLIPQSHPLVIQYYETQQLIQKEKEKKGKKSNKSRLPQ"}, "[5]": {"target": "T5, Gal4 DNA binding domain-Yen1 (full-length YEN1 in pAS1, plasmid pJ90) (S. cerevisiae) (UniProt P40028)", "T5 sequence": "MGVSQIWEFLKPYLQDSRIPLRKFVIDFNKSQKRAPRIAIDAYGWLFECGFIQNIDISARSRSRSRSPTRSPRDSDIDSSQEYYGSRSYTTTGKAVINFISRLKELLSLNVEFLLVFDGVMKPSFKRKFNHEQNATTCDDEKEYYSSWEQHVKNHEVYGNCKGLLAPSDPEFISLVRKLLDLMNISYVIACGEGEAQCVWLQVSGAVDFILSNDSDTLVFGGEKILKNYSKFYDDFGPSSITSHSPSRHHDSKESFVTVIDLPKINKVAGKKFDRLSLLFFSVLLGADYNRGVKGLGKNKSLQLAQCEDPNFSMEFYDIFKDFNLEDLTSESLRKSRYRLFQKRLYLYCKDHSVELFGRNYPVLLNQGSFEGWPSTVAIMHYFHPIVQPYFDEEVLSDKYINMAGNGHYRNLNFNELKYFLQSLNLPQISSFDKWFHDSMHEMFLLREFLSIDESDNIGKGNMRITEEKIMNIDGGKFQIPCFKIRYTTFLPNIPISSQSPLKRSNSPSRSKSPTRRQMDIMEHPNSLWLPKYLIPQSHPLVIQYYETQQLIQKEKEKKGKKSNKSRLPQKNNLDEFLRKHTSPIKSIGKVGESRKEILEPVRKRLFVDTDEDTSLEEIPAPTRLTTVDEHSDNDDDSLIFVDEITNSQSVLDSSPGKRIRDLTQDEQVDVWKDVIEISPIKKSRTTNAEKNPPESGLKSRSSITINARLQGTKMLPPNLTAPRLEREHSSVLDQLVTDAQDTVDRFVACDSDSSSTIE"}, "[6]": {"target": "T1, GBD-Yen1 (1–638) (S. cerevisiae)", "remark": "listed apart in the source"}, "[7]": {"target": "T2, GBD-Yen1 (1–690) (S. cerevisiae)", "remark": "listed apart in the source"}, "[8]": {"target": "T3, GBD-Yen1 (1–540) (S. cerevisiae)", "remark": "listed apart in the source"}, "[9]": {"target": "T4, GBD-Yen1 (1–570) (S. cerevisiae)", "remark": "listed apart in the source"}, "[10]": {"target": "T5, Gal4 DNA binding domain-Yen1 (full-length YEN1 in pAS1, plasmid pJ90) (S. cerevisiae)", "remark": "listed apart in the source"}}, "note": "Like-named read-outs stand apart in the source and are kept apart here. No constants are given. Whether binding was seen depends on the method and setting. Some entries that bind do so weakly or less than the wild type.", "data": [{"molecule": "GAL4AD-Smt3 (full length Smt3 in pACTII, plasmid pF11) (from UniProt Q12306 1-101)", "values": [{"measurement": "binding", "setting": "[1]", "value": "binds"}, {"measurement": "binding", "setting": "[2]", "value": "binds"}, {"measurement": "binding", "setting": "[3]", "value": "no binding"}, {"measurement": "binding", "setting": "[4]", "value": "no binding"}, {"measurement": "binding", "setting": "[5]", "value": "binds"}]}, {"molecule": "GAL4AD-Uls1 336–599 (domain or fragment, UniProt Q08562 336-599) GDFADNKILKRPILPSKNMDHTTHNSHDSEQKNSSIIILSDEDESGAGINDIESPLKVSEPNTADALRSSVPEVISLLDLPNIDLNNSVIKEASGSNSIPTSETDAQSSSSSVLQGTIMTEQATQSSQHECNSSLDTLKKNHQKLLKDLNSRESELRNALSCCKTNSEILRRKLSRREKEVSDAEKHWQLLLTSMARGGRTISSTQQILVDEAENQLNKLKEKRQLTKSKLDSINLKMYNYNEQWKSFVHSKNINLQKSLAALE", "values": [{"measurement": "binding", "setting": "[6]", "value": "binds"}, {"measurement": "binding", "setting": "[7]", "value": "binds"}, {"measurement": "binding", "setting": "[8]", "value": "binds weakly"}, {"measurement": "binding", "setting": "[9]", "value": "binds weakly"}, {"measurement": "binding", "setting": "[10]", "value": "binds"}]}]}
